Experimental data: PubChem BioAssay AID445 (National Center for Advancing Translational Sciences (NCATS), 2006)
Some of the results follow. Further columns of the screen follow, without active or inactive calls. Compounds called inactive in the main read-out are mostly missing here. The note in brackets gives the kind of curve behind each potency; many fits are weak.

experiment: IkB Signaling; settings: ABC-DLBCL IkBa-CBG/CBR dual luciferase ratio (green luciferase fused to IkBa over red control in OCI-Ly3 lymphoma cells), 4 h; measured here: control luc red channel unless noted
In short: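 In this assay, an IκBα–CBG68 fusion accumulates when IKK-driven degradation is blocked; native CBR normalizes for cell number. OCI-Ly3 cells were treated 4 h with compound and doxycycline, then green and red light read after Chroma-Glo addition.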

Row | SMILES | AC50
1 | Cn1nnc2c(NCc3c(F)cccc3F)ncnc21 | 7.94 µM [falling, single point]
2 | COc1ccc(CCNC(=O)c2cc(=O)c3cc(C)c(C)cc3o2)cc1OC | 31.6 µM [falling, partial curve]
3 | CCc1ccc(C(=O)CC2(O)C(=O)N(CCc3ccccc3)c3ccc(Cl)cc32)cc1 (stereo not given) | 12.6 µM [falling, partial curve]
4 | Cn1c(=O)c2c(nc(SCC(=O)Nc3ccc(F)c(F)c3)n2Cc2ccccc2F)n(C)c1=O | 0.316 µM [rising, full curve]
5 | COc1ccc(CCNC(=O)CCc2c(C)nc3cc(-c4cccc(F)c4)nn3c2C)cc1OC | 12.6 µM [falling, partial curve]
6 | CCCOc1ccc(C(=O)N(Cc2ccco2)Cc2ccco2)cc1 | 10 µM [falling, partial curve]
7 | Cc1ccccc1OCC(=O)Nc1ccccc1OCc1cc(=O)n2ccccc2n1 | 1.26 µM [falling, partial curve]
8 | COc1ccc(C(=O)Nc2cccc(C(=O)OCc3cc(=O)n4c5c(sc4n3)CCCC5)c2)cc1 | 0.2 µM [falling, full curve]
9 | FC(F)(F)c1cccc(Nc2c3c(nc4ccc(Cl)cc24)CCC3)c1 | 12.6 µM [falling, partial curve]
10 | CC(=O)N(C)c1ccc(OCC(O)CN(Cc2ccco2)S(=O)(=O)c2ccc(C)cc2)cc1 (stereo not given) | 10 µM [falling, partial curve]
11 | COc1cc(OC)c(NC(=O)CCc2c(C)nc3c4c(C)cc(C)nc4nn3c2C)cc1Cl | 6.31 µM [falling, single point]
12 | COc1cc(NC(=O)C2CCN(S(=O)(=O)c3c(C)noc3/C=C/c3ccccc3F)CC2)cc(OC)c1OC | 2.51 µM [falling, full curve, poor fit]
13 | O=C(NCc1ccco1)c1ccc(NC(=O)C2COc3ccccc3O2)cc1 (stereo not given) | 39.8 µM [falling, single point]
14 | COc1cccc(/C=C/c2nc(C#N)c(N3CCN(C)CC3)o2)c1 | 25.1 µM [falling, single point]
15 | COc1ccc(Nc2oc(COc3ccc(Cl)cc3)nc2C#N)cc1 | 3.98 µM [falling, partial curve]
16 | Cc1ccc(CCNC(=O)c2ccc(Nc3nc4ccccc4n4nnnc34)cc2)cc1 | 5.01 µM [falling, partial curve]
17 | O=C(c1n[nH]c2ccccc12)N1CCN(S(=O)(=O)c2ccc3ccccc3c2)CC1 | 25.1 µM [falling, partial curve]
18 | CCC(Sc1nc2n[nH]c(C)c2c(=N)n1-c1ccccc1Cl)C(=O)N(CC)CC (stereo not given) | 39.8 µM [falling, single point]
19 | CC1Cn2c(C(=O)NCc3ccccc3Cl)cc3cccc(c32)S1 (stereo not given) | 39.8 µM [falling, single point]
20 | CCOC(=O)c1c(C)oc2ncnc(Nc3cccc(C(F)(F)F)c3)c12 | 0.251 µM [rising, full curve]

An excerpt of these results, with tabs:
Row	SMILES	AC50
1	Cn1nnc2c(NCc3c(F)cccc3F)ncnc21	7.94 µM [falling, single point]
2	COc1ccc(CCNC(=O)c2cc(=O)c3cc(C)c(C)cc3o2)cc1OC	31.6 µM [falling, partial curve]
3	CCc1ccc(C(=O)CC2(O)C(=O)N(CCc3ccccc3)c3ccc(Cl)cc32)cc1 (stereo not given)	12.6 µM [falling, partial curve]

(more compounds)

Row | SMILES | AC50
21 | CN(C)C=Nc1ncc2c3ccccc3n(CCN(C)C)c2c1C#N | 31.6 µM [rising, partial curve]
22 | O=c1oc2ccccc2cc1-c1cn2cc(Cc3ccc(F)cc3)sc2n1 | 25.1 µM [rising, partial curve]
23 | CCN(CC)S(=O)(=O)c1ccc(S(=O)(=O)N(Cc2ccccn2)Cc2ccco2)cc1 | 39.8 µM [falling, single point]
24 | Cc1ccc(Cn2ccnc2SCC(=O)NCc2ccccc2)cc1 | 3.98 µM [falling, partial curve]
25 | Cc1nc(-c2ccc(Cl)cc2)sc1CCNC(=O)C(=O)Nc1ccc2c(c1)OCO2 | 2.51 µM [rising, full curve]
26 | Cc1ccc(NC(=O)c2ccc3c(c2)NC(=O)c2ccccc2S3)c(Cl)c1 | 10 µM [falling, partial curve]
27 | Cn1c(=O)c2c(nc(SCC(=O)Nc3ccccc3F)n2Cc2ccccc2F)n(C)c1=O | 10 µM [falling, partial curve]
28 | COc1ccc(CNC(=O)C(=O)NCC(c2ccco2)S(=O)(=O)c2ccc(Cl)cc2)cc1 (stereo not given) | 2.51 µM [rising, partial curve, poor fit]
29 | COc1ccc(N2CCN(CCCNC(=O)c3c(C)nn(-c4ccc(F)cc4)c3-n3cccc3)CC2)cc1 | 12.6 µM [falling, partial curve]
30 | CCc1ccc(NC(=O)Cn2nnc(-c3ccccc3N)n2)cc1 | 12.6 µM [falling, single point]
31 | COc1ccc(S(=O)(=O)N(CC(=O)NC(C)c2ccccc2)c2ccc(C)cc2)cc1OC (stereo not given) | 15.8 µM [falling, partial curve]
32 | COc1ccccc1N1CCN(C(=O)c2cc3c(=O)n(Cc4cccs4)ccc3nc2C)CC1 | 31.6 µM [falling, single point]
33 | CCOC(=O)N1CCc2c(sc3c2c(=O)n(-c2ccc(CC)cc2)c(=O)n3Cc2ccc(F)cc2Cl)C1 | 10 µM [falling, partial curve]
34 | COc1ccccc1-c1cc(C(=O)Nc2cc(C)n(Cc3ccc(Cl)cc3)n2)no1 | 0.126 µM [falling, full curve, poor fit]
35 | CCOC(=O)c1c(NC(=O)Cc2coc3ccc(CC)cc23)sc2c1CCC2 | 20 µM [falling, single point]
36 | Cc1ccc(-n2ncc3c(NCCCn4ccnc4)ncnc32)cc1C | 20 µM [falling, partial curve]
37 | O=C(CCn1c(=O)c2sccc2n(CC(=O)OCc2ccccc2)c1=O)NCc1ccco1 | 31.6 µM [falling, partial curve]
38 | CCOc1ccc2nc(N3CCCC(C(=O)NCCc4ccc(Cl)cc4)C3)sc2c1 (stereo not given) | 0.126 µM [falling, full curve]
39 | Cc1nn(CCc2nc(-c3ccco3)cs2)c2[nH]c(=O)cc(C(F)(F)F)c12 | 39.8 µM [falling, single point]
40 | COc1ccccc1NC(=O)N1CCN(c2ccc3nnc(-c4ccc(F)cc4)n3n2)CC1 | 2.51 µM [rising, partial curve]
